The values that follow come from paper doi:10.1101/2023.03.24.23287659.

Chains of the proteins cited; added tags and fusions are not shown.
UniProt Q9BYV9: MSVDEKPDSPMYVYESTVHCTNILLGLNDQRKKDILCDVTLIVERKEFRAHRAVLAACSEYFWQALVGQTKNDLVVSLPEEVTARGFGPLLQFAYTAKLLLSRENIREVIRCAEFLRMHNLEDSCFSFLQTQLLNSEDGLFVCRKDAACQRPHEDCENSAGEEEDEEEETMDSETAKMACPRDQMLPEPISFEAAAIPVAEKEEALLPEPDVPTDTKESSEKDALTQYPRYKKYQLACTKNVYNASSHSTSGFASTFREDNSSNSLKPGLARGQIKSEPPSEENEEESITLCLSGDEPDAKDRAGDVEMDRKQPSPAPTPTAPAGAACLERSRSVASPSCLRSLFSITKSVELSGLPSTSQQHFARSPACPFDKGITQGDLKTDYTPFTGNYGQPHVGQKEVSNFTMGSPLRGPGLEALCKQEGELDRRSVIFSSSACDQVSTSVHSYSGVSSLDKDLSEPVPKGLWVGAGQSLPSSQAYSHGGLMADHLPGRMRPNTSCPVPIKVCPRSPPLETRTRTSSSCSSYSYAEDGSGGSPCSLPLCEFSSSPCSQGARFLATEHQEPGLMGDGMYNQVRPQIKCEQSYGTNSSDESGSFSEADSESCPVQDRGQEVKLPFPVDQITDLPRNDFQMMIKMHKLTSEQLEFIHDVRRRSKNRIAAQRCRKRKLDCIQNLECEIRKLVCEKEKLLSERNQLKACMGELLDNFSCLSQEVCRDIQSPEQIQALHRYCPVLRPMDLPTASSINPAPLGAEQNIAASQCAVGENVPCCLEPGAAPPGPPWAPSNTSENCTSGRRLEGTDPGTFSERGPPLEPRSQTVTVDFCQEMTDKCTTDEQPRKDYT
UniProt Q9H165: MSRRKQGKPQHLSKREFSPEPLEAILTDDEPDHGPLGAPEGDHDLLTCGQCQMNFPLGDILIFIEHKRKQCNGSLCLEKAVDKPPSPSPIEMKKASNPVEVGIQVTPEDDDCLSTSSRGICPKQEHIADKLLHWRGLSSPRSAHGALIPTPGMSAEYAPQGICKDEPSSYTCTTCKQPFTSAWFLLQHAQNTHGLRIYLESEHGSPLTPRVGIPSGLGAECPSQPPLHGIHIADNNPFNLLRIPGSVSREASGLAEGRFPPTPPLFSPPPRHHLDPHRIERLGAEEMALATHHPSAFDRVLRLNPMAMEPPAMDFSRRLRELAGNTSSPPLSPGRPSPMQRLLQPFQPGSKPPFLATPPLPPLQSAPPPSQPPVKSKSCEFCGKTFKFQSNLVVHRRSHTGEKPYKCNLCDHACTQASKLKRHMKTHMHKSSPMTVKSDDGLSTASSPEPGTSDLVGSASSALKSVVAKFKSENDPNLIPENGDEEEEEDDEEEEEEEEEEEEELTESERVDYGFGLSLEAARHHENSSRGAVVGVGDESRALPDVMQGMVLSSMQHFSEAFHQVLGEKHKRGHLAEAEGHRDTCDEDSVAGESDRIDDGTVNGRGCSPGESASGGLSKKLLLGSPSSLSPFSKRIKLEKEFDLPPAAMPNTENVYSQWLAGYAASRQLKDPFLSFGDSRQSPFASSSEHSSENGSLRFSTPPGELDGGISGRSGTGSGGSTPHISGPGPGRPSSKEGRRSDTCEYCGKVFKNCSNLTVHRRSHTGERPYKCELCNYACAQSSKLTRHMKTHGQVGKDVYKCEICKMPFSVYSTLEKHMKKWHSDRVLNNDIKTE

One assay addresses T1, Flag-NRF2 (UniProt Q16236).
T1 sequence: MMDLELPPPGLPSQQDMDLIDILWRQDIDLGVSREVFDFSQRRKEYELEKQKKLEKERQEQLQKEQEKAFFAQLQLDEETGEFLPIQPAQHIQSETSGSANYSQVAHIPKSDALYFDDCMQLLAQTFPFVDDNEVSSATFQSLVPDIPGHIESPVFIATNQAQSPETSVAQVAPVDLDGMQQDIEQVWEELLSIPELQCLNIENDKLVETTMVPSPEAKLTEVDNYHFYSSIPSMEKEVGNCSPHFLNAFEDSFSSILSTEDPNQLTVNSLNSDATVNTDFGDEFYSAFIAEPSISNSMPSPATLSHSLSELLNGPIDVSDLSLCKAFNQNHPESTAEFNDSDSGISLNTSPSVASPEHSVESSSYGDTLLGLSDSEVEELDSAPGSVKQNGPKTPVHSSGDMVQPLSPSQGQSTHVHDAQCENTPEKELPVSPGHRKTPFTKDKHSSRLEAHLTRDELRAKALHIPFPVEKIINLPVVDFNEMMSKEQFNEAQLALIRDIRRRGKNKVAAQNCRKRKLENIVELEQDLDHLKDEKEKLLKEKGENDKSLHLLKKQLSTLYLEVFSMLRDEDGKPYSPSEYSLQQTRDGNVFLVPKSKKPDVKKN
The assay can be described thus: co-IP.

Assay [1] addresses Flag tagged BACH2 (human) (UniProt Q9BYV9). The assay can be described thus: co-IP.
In a further assay the target is T2, NFE2 (UniProt Q16621).
T2 sequence: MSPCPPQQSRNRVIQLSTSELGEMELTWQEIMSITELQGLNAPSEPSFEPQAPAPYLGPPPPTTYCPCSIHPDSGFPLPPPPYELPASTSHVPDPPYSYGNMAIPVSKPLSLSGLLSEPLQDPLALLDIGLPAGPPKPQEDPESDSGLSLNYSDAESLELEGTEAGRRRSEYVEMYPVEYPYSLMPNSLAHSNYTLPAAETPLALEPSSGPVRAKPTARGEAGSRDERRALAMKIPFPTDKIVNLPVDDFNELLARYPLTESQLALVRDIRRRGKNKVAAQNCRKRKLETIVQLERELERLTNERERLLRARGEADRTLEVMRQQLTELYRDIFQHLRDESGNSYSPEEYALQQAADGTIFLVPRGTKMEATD
The assay can be described thus: co-IP.

The target of assay [2] is T3, Flag-NRF2 (overexpressed in K562 cells) (UniProt Q16236).
T3 sequence: T1 sequence
In words: co-IP.

The next assay concerns the target T4, recombinant NRF2 (UniProt Q16236).
T4 sequence: T1 sequence
In words: native gel or EMSA. For orientation: Mobility shift assays separate free from complexed probe on a gel.

Results are given in words; binding and its absence hold for the method and conditions named. For part of these data: In cells and extracts the contact can be indirect. Some entries that bind do so weakly or less than the wild type. For part of these data: Sequences can lack the tags named with a protein.

As to “HA tagged BCL11A (from UniProt Q9H165 1-835)”, the binding entry (with Flag-NRF2; in assay [1]) was “no binding” throughout.

Regarding HA-BACH2 (from UniProt Q9BYV9 1-841), the binding entry is given as “binds” in the assay with Flag-NRF2 and “no binding” with NFE2.

Regarding “endogenous BACH2 (from UniProt Q9BYV9 1-841)”, in assay [2], the binding entry is reported as “binds”.

For “recombinant BACH2 (from UniProt Q9BYV9 1-841)”, the binding result with recombinant NRF2 is “binds”.
